Measurements reported in PMC12548414.
Screen size: about 1,600 compounds; about 20 (1%) showed an effect of 50% or more. This is one part of the list.

Each molecule was assayed on T1, E. coli pLC1021 (luc-trpAt trans-translation reporter). Conditions: reporter signal, KKL-35 = 100%; rise means trans-translation inhibition; 2 h, 20 µM.
T1 construct: pLC1021 luc-trpAt reporter strain
Design: species or system Escherichia coli pLC1021; luc-trpAt non-stop luciferase reporter; luminescence rises when trans-translation is inhibited; normalized to KKL-35 and DMSO
Outline: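 Cells carrying the non-stop luc-trpAt reporter were exposed to 20 µM compound for 2 h at room temperature, then Bright-Glo was added and luminescence read at 560 nm after 10 min. Signals were normalised per plate to DMSO and 20 µM KKL-35 wells. Hits: activity one SD above the median; ≥2 biological repeats averaged.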

| SMILES | % activation [%] |
| --- | --- |
| COc1ccc2c(c1)NC1(CCN(CC3=Cc4ccccc4OC3)CC1)c1cccn1-2 [KKL-1253] | 0 |
| O=C(NC(Nc1nc2ccc([N+](=O)[O-])cc2s1)(C(F)(F)F)C(F)(F)F)c1ccccc1Cl [KKL-0382] | 0 |
| c1ccc(-c2nc(N3CCCCCC3)nc(-n3ccnc3)n2)cc1 [KKL-1522] | 1 |
| CCCC/C=C/c1cc2ccncc2cc1OC1CCNCC1 [KKL-1813] | 3 |
| Cc1ccc(-n2cc(CN(C)CCn3ccnc3)c(-c3ccc(F)cc3)n2)cc1 [KKL-0654] | 3 |
| COC(=O)COc1ccc(NC(=O)c2ccc3c(c2)C(=O)N(C(C)(C)C)C3=O)cc1 [KKL-1298] | 0 |
| Cc1ccc(-c2csc3ncn(C(C)C(=O)OC4CCCCC4)c(=O)c23)cc1C (stereo not shown) [KKL-0731] | 0 |
| COc1ccc(-c2nnc(SCC(=O)NCCc3ccccc3)o2)cc1 [KKL-0428] | 4 |
| COC(=O)COc1ccc(NC(=O)c2ccccc2I)cc1 [KKL-1569] | 0 |
| C=CCc1cc(C)ccc1OCCCCn1ccnc1 [KKL-1325] | 1 |
| CC(=O)Nc1nc2ccccc2n1Cc1ccccc1 [KKL-0379] | 0 |
| Cc1cc(C)n(-c2nc(NC(C)C)nc(NC(C)C)n2)n1 [KKL-1638] | 0 |
| Cc1cc(C(=O)CCl)c(C)n1Cc1ccco1 [KKL-1654] | 0 |
| Clc1ccc(OCCCCn2ccnc2)c(Br)c1 [KKL-1322] | 0 |
| Cc1ccc(C(=O)NCCC2=CCCCC2)cc1I [KKL-1410] | 2 |
| Cc1ccc(-n2cc(CNCCc3ccccn3)c(-c3cccc(C)c3)n2)cc1 [KKL-1177] | 0 |
| CCOC(=O)CSc1nnc2c3sc4nc(N5CCOCC5)c5c(c4c3ncn12)CC(C)(C)OC5 [KKL-1344] | 0 |
| COC(=O)COc1ccc(NC(=O)COc2ccc(C)cc2C)cc1 [KKL-1458] | 4 |
| Cc1ccc(NC(=O)C(Cl)Cl)cc1[N+](=O)[O-] [KKL-1373] | 4 |
| COc1ccc(NC(=O)c2c(NC(=O)c3ccc([N+](=O)[O-])o3)sc3c2CCC3)cc1 [KKL-1310] | 0 |
| CSCCC(=O)NC1CCCc2c1cnn2-c1ccc(C(C)(C)C)cc1 (stereo not shown) [KKL-1164] | 2 |
| Cc1cc(Nc2ccccc2)n(-c2nc3ccccc3[nH]2)n1 [KKL-0835] | 21 |

Laid out differently: entries from further up.
SMILES	% activation [%]
c1ccc(-c2nc(N3CCCCCC3)nc(-n3ccnc3)n2)cc1 [KKL-1522]	1
Cc1cc(C(=O)CCl)c(C)n1Cc1ccco1 [KKL-1654]	0

Remaining list, next part:

| SMILES | % activation [%] |
| --- | --- |
| Cc1ccc(C2(O)CCN(CCNC(=O)c3oc4ccccc4c3C)CC2)cc1 [KKL-0340] | 1 |
| Cc1cc2c(cc1C)C(O)CC1(CCN(CC(O)c3ccc4ccccc4c3)CC1)O2 (stereo not shown) [KKL-0674] | 0 |
| Cc1cccc(Cn2ccc(NC(=O)c3ccc4c(c3)OCO4)n2)c1 [KKL-1673] | 3 |
| O=C(Nc1nc(-c2ccccn2)cs1)c1ncc(Cl)c(Cl)c1Cl [KKL-0390] | 10 |
| Nc1nnc(Sc2ccc([N+](=O)[O-])c3ncccc23)s1 [KKL-1399] | 0 |
| COc1ccccc1C1(O)CCN(Cc2[nH]c3ccc(C)cc3c2C)CC1 [KKL-0707] | 7 |
| N#Cc1ncn(-c2ccc3nnc(C(F)(F)F)n3n2)n1 [KKL-1886] | 0 |
| Cc1c(OC(=O)c2ccccc2Cl)ccc2c1CCCC2 [KKL-1558] | 0 |
| Cc1ccc2nc(-c3ccccn3)c(Nc3ccccc3C)n2c1 [KKL-1511] | 0 |
| NC(=Nc1nc(-c2ccccn2)cc2ccccc12)c1cccc(Cl)c1 [KKL-1764] | 0 |
| O=C(Nc1ccc(OC(F)(F)C(F)F)cc1)Nc1cccc(Cl)c1 [KKL-1323] | 0 |
| CCOC(=O)C1CCCN(c2ccc([N+](=O)[O-])c3nonc23)C1 (stereo not shown) [KKL-1513] | 0 |
| OC(CN1CCC2(CC1)CC(O)c1cc(Cl)ccc1O2)c1ccc2ccccc2c1 (stereo not shown) [KKL-0552] | 0 |
| COc1ccc2cc(C(=O)Nc3ccc(C4CCN(C)CC4)cc3)sc2c1 [KKL-1818] | 1 |
| Nc1cccnc1Nc1ccc(Cl)cc1 [KKL-1858] | 0 |
| O=C(CNC(=O)/C(=C\c1ccc(Br)cc1)NC(=O)c1ccccc1)OCc1ccccc1 [KKL-0366] | 2 |
| COC(=O)CSc1nnc(-c2ccc(OC)cc2OC)o1 [KKL-1650] | 2 |
| Brc1cncc(-c2cc(NCCCn3ccnc3)nc(-c3ccccc3)n2)c1 [KKL-1784] | 0 |
| COC(=O)[C@@H](NC(=O)c1cc(COc2c(F)cccc2F)on1)c1ccccc1 [KKL-0496] | 8 |
| O=[N+]([O-])c1c(O)nc(/C=C/c2cccc3ccccc23)nc1O [KKL-0765] | 0 |
| Cc1ccc(-n2cc(CNCCc3nc(O)c4ccccc4n3)c(-c3cccc(C)c3)n2)cc1 [KKL-1180] | 0 |
